Results are given in words; binding and its absence hold for the method and conditions named. Some results given as binding are weak or reduced against the parent protein; the word gives no strength.

By UniProt entry, the sequences of proteins in these tests, tags left out. Where a name states a change or a piece, a line headed by the entry shows the natural chain unless it says otherwise.
UniProt P43630: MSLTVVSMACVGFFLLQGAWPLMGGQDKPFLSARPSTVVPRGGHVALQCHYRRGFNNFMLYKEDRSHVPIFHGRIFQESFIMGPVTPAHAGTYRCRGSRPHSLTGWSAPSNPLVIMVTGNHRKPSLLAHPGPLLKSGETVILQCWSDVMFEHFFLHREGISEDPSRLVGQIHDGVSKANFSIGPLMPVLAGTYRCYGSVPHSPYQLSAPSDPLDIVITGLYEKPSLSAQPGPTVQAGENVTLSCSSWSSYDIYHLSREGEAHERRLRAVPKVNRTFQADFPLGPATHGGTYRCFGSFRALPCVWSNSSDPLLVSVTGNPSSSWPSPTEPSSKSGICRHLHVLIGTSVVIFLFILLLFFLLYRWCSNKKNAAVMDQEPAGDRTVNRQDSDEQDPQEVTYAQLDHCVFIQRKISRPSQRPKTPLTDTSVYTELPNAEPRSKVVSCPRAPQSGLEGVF

For experiment [1], the target named is KIR3DL2 (as expressed on RAJI-KIR3DL2 cells) (human) (UniProt P43630). As to the kind of experiment: flow cytometry titration on RAJI-KIR3DL2 cells, goat anti-human-PE detection. (In general: In flow cytometry, cells or beads pass a laser one at a time.)
For experiment [2] the target is unchanged. As to the kind of experiment: binding assay of Example 1 at two mAb concentrations, compared with chimeric 10G5.

B1: 10G5-H5L4 (antibody, human IgG1, V domains shown)
VH: QVQLVQSGAELARPGASVKVSCKASGYTFTSYTMHWVRQAPGQGLEWIGYINPSSGYTENNRKFKDKTTLTADKSTSTAYMELSSLRSEDTAVYYCARLGKGLLPPFDYWGQGTTVTVSS
VL: DIQMTQSPSSLSASVGDRVTITCRASENIYSNLAWYQQKQGKAPQLLVYAATNLADGVPSRFSGSGSGTQYTLTINSLQPEDFATYYCQHFWGTPYTFGGGTKLEIK
Regarding B1, the binding entry in experiment [1] and in experiment [2] was “binds” each time.

B2: 10G5-H6L2 (antibody, human IgG1, V domains shown)
VH: QVQLQQSGAEVKKPGASVKMSCKASGYTFTSYTMHWVKQRPGQGLEWIGYINPSSGYTENNRKFKDKTTLTADKSTSTAYMELSSLRSEDTAVYYCARLGKGLLPPFDYWGQGTTLTVSS
VL: DIQMTQSPSSLSASVGDRVTITCRASENIYSNLAWYQQKPGKAPQLLVYAATNLADGVPSRFSGSGSGTDYTLTISSLQPEDFATYYCQHFWGTPYTFGGGTKLEIK
For B2, the binding entry in experiment [1] and in experiment [2] was “binds” in each case.

B3: 10G5-H4L4 (antibody, human IgG1, V domains shown)
VH: QVQLQQSGAEVKKPGASVKMSCKASGYTFTSYTMHWVRQAPGQGLEWIGYINPSSGYTENNRKFKDKTTLTADTSTSTAYMELSSLRSEDTAVYYCARLGKGLLPPFDYWGQGTTLTVSS
VL: DIQMTQSPSSLSASVGDRVTITCRASENIYSNLAWYQQKQGKAPQLLVYAATNLADGVPSRFSGSGSGTQYTLTINSLQPEDFATYYCQHFWGTPYTFGGGTKLEIK
With B3, the binding entry in experiment [1] and in experiment [2] was “binds” throughout.

B4: 10G5-H4L5 (antibody, human IgG1, V domains shown)
VH: QVQLQQSGAEVKKPGASVKMSCKASGYTFTSYTMHWVRQAPGQGLEWIGYINPSSGYTENNRKFKDKTTLTADTSTSTAYMELSSLRSEDTAVYYCARLGKGLLPPFDYWGQGTTLTVSS
VL: DIQMTQSPSSLSASVGETVTITCRASENIYSNLAWYQQKQGKAPQLLVYAATNLADGVPSRFSGSGSGTQYTLTINSLQPEDFATYYCQHFWGTPYTFGGGTKLEIK
Take B4: the binding result in experiment [1] and in experiment [2] was “binds” throughout.

B5: 10G5-H3L3 (antibody, human IgG1, V domains shown)
VH: QVQLVQSGAEVKKPGASVKVSCKASGYTFTSYTMHWVRQAPGQGLEWIGYINPSSGYTENNRKFKDKTTMTADTSTSTAYMELSSLRSEDTAVYYCARLGKGLLPPFDYWGQGTTVTVSS
VL: DIQMTQSPSSLSASVGDRVTITCRASENIYSNLAWYQQKPGKAPQLLVYAATNLADGVPSRFSGSGSGTQYTLTISSLQPEDFATYYCQHFWGTPYTFGGGTKLEIK
Consider B5, for which the binding result in experiment [1] and in experiment [2] was “binds” in each case.

B6: 10G5-H5L5 (antibody, human IgG1, V domains shown)
VH: QVQLVQSGAELARPGASVKVSCKASGYTFTSYTMHWVRQAPGQGLEWIGYINPSSGYTENNRKFKDKTTLTADKSTSTAYMELSSLRSEDTAVYYCARLGKGLLPPFDYWGQGTTVTVSS
VL: DIQMTQSPSSLSASVGETVTITCRASENIYSNLAWYQQKQGKAPQLLVYAATNLADGVPSRFSGSGSGTQYTLTINSLQPEDFATYYCQHFWGTPYTFGGGTKLEIK
As to B6, the binding result in experiment [1] and in experiment [2] was “binds” throughout.

B7: 10G5-H3L4 (antibody, human IgG1, V domains shown)
VH: QVQLVQSGAEVKKPGASVKVSCKASGYTFTSYTMHWVRQAPGQGLEWIGYINPSSGYTENNRKFKDKTTMTADTSTSTAYMELSSLRSEDTAVYYCARLGKGLLPPFDYWGQGTTVTVSS
VL: DIQMTQSPSSLSASVGDRVTITCRASENIYSNLAWYQQKQGKAPQLLVYAATNLADGVPSRFSGSGSGTQYTLTINSLQPEDFATYYCQHFWGTPYTFGGGTKLEIK
Turning to B7, the binding entry in experiment [1] and in experiment [2] was “binds” in each case.

B8: 10G5-H6L5 (antibody, human IgG1, V domains shown)
VH: QVQLQQSGAEVKKPGASVKMSCKASGYTFTSYTMHWVKQRPGQGLEWIGYINPSSGYTENNRKFKDKTTLTADKSTSTAYMELSSLRSEDTAVYYCARLGKGLLPPFDYWGQGTTLTVSS
VL: DIQMTQSPSSLSASVGETVTITCRASENIYSNLAWYQQKQGKAPQLLVYAATNLADGVPSRFSGSGSGTQYTLTINSLQPEDFATYYCQHFWGTPYTFGGGTKLEIK
Consider B8, for which the binding entry in experiment [1] and in experiment [2] was “binds” in each case.

B9: 10G5-H4L3 (antibody, human IgG1, V domains shown)
VH: QVQLQQSGAEVKKPGASVKMSCKASGYTFTSYTMHWVRQAPGQGLEWIGYINPSSGYTENNRKFKDKTTLTADTSTSTAYMELSSLRSEDTAVYYCARLGKGLLPPFDYWGQGTTLTVSS
VL: DIQMTQSPSSLSASVGDRVTITCRASENIYSNLAWYQQKPGKAPQLLVYAATNLADGVPSRFSGSGSGTQYTLTISSLQPEDFATYYCQHFWGTPYTFGGGTKLEIK
In the case of B9, the binding entry in experiment [1] and in experiment [2] was “binds” throughout.

B10: 10G5-H3L5 (antibody, human IgG1, V domains shown)
VH: QVQLVQSGAEVKKPGASVKVSCKASGYTFTSYTMHWVRQAPGQGLEWIGYINPSSGYTENNRKFKDKTTMTADTSTSTAYMELSSLRSEDTAVYYCARLGKGLLPPFDYWGQGTTVTVSS
VL: DIQMTQSPSSLSASVGETVTITCRASENIYSNLAWYQQKQGKAPQLLVYAATNLADGVPSRFSGSGSGTQYTLTINSLQPEDFATYYCQHFWGTPYTFGGGTKLEIK
B10: the binding result in experiment [1] and in experiment [2] was “binds” throughout.

B11: 10G5-H6L3 (antibody, human IgG1, V domains shown)
VH: QVQLQQSGAEVKKPGASVKMSCKASGYTFTSYTMHWVKQRPGQGLEWIGYINPSSGYTENNRKFKDKTTLTADKSTSTAYMELSSLRSEDTAVYYCARLGKGLLPPFDYWGQGTTLTVSS
VL: DIQMTQSPSSLSASVGDRVTITCRASENIYSNLAWYQQKPGKAPQLLVYAATNLADGVPSRFSGSGSGTQYTLTISSLQPEDFATYYCQHFWGTPYTFGGGTKLEIK
Regarding B11, the binding entry in experiment [1] and in experiment [2] was “binds” throughout.

B12: 10G5-H4L2 (antibody, human IgG1, V domains shown)
VH: QVQLQQSGAEVKKPGASVKMSCKASGYTFTSYTMHWVRQAPGQGLEWIGYINPSSGYTENNRKFKDKTTLTADTSTSTAYMELSSLRSEDTAVYYCARLGKGLLPPFDYWGQGTTLTVSS
VL: DIQMTQSPSSLSASVGDRVTITCRASENIYSNLAWYQQKPGKAPQLLVYAATNLADGVPSRFSGSGSGTDYTLTISSLQPEDFATYYCQHFWGTPYTFGGGTKLEIK
For the molecule B12, the binding entry in experiment [1] and in experiment [2] was “binds” each time.

B13: 10G5-H5L2 (antibody, human IgG1, V domains shown)
VH: QVQLVQSGAELARPGASVKVSCKASGYTFTSYTMHWVRQAPGQGLEWIGYINPSSGYTENNRKFKDKTTLTADKSTSTAYMELSSLRSEDTAVYYCARLGKGLLPPFDYWGQGTTVTVSS
VL: DIQMTQSPSSLSASVGDRVTITCRASENIYSNLAWYQQKPGKAPQLLVYAATNLADGVPSRFSGSGSGTDYTLTISSLQPEDFATYYCQHFWGTPYTFGGGTKLEIK
B13: the binding result in experiment [1] and in experiment [2] was “binds” throughout.

B14: 10G5-H6L4 (antibody, human IgG1, V domains shown)
VH: QVQLQQSGAEVKKPGASVKMSCKASGYTFTSYTMHWVKQRPGQGLEWIGYINPSSGYTENNRKFKDKTTLTADKSTSTAYMELSSLRSEDTAVYYCARLGKGLLPPFDYWGQGTTLTVSS
VL: DIQMTQSPSSLSASVGDRVTITCRASENIYSNLAWYQQKQGKAPQLLVYAATNLADGVPSRFSGSGSGTQYTLTINSLQPEDFATYYCQHFWGTPYTFGGGTKLEIK
Take B14: the binding result in experiment [1] and in experiment [2] was “binds” each time.
